Paper PMC11590682
Results are given in words; binding and its absence hold for the method and conditions named. Some entries that bind do so weakly or less than the wild type.

Molecular target: Siglec-5 (endogenous, activated human T cells) (human (endogenous in activated T cells from adult PBMCs)) (UniProt O15389)
Test: non-reducing SDS-PAGE and western blot; CD3+ T cells from adult PBMCs stimulated with plate bound anti-CD3, anti-CD28 and IL-2 for up to 3 days; lysed and boiled in non-reducing SDS sample buffer with 10 mM iodoacetamide

B1: Siglec-5 (endogenous, activated human T cells) (receptor, UniProt O15389 17-551)
chain: EKPVYELQVQKSVTVQEGLCVLVPCSFSYPWRSWYSSPPLYVYWFRDGEIPYYAEVVATNNPDRRVKPETQGRFRLLGDVQKKNCSLSIGDARMEDTGSYFFRVERGRDVKYSYQQNKLNLEVTALIEKPDIHFLEPLESGRPTRLSCSLPGSCEAGPPLTFSWTGNALSPLDPETTRSSELTLTPRPEDHGTNLTCQMKRQGAQVTTERTVQLNVSYAPQTITIFRNGIALEILQNTSYLPVLEGQALRLLCDAPSNPPAHLSWFQGSPALNATPISNTGILELRRVRSAEEGGFTCRAQHPLGFLQIFLNLSVYSLPQLLGPSCSWEAEGLHCRCSFRARPAPSLCWRLEEKPLEGNSSQGSFKVNSSSAGPWANSSLILHGGLSSDLKVSCKAWNIYGSQSGSVLLLQGRSNLGTGVVPAALGGAGVMALLCICLCLIFFLIVKARRKQAAGRPEKMDDEDPIMGTITSGSRKKPWPDSPGDQASPPGDAPPLEEQKELHYASLSFSEMKSREPKDQEAPSTTEYSEIKTSK
- binding: binds
